Assay results published in patent publication US20180344736A1.
No constants are given. Whether binding was seen depends on the method and setting. For some of these results: Binding seen in cells or lysates may run through a third protein. Some results given as binding are weak or reduced against the parent protein; the word gives no strength.

Amino acid sequences for entries named in this document (tags omitted). A change or cut given only in a name is not applied to a line headed by its entry. Chains listed by the source or under a name are the forms on record and can include a tag or linker. Residues count along the entry.
UniProt Q9UM11: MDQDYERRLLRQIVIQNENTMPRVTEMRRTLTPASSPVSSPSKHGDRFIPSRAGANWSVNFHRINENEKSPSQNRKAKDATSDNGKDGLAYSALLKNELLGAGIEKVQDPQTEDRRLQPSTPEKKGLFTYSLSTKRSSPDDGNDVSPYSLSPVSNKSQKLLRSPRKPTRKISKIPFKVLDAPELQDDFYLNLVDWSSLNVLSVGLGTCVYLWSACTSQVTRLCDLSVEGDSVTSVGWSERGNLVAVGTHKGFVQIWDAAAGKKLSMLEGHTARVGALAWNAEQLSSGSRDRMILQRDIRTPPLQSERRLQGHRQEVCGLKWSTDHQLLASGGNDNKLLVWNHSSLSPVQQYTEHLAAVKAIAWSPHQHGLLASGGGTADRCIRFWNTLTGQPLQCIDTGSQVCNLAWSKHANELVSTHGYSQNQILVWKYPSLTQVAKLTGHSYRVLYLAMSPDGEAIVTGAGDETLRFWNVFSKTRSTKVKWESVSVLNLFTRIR
Purified Cdh1 recombinant protein (Q9UM11, form named): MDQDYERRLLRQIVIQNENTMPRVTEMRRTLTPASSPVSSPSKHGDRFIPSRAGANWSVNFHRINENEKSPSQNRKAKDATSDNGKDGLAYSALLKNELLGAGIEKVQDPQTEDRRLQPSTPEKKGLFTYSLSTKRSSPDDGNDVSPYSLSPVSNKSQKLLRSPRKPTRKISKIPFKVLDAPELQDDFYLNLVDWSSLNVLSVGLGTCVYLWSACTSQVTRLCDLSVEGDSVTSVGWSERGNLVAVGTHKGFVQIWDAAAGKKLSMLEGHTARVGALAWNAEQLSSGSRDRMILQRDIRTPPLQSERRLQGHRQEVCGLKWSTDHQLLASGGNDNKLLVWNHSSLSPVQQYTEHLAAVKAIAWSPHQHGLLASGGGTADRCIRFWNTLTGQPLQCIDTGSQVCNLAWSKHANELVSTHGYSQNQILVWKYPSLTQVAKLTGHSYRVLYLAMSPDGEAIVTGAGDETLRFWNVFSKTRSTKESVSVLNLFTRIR
UniProt P53350, residues 2-603: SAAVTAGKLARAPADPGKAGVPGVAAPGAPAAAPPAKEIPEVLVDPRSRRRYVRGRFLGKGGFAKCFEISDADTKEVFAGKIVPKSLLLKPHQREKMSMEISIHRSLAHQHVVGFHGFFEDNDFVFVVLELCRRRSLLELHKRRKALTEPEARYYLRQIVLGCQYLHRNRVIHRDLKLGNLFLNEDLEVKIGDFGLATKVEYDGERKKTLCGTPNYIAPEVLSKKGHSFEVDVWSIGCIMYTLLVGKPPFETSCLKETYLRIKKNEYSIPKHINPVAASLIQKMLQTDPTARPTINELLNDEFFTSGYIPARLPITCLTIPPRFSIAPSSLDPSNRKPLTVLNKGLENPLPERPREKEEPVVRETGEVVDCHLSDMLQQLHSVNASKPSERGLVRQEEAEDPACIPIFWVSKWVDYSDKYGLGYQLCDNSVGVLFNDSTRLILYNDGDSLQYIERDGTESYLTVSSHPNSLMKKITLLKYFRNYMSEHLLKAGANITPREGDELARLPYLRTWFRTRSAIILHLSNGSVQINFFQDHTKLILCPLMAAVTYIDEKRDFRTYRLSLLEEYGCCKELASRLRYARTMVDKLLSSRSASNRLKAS
UniProt Q12834: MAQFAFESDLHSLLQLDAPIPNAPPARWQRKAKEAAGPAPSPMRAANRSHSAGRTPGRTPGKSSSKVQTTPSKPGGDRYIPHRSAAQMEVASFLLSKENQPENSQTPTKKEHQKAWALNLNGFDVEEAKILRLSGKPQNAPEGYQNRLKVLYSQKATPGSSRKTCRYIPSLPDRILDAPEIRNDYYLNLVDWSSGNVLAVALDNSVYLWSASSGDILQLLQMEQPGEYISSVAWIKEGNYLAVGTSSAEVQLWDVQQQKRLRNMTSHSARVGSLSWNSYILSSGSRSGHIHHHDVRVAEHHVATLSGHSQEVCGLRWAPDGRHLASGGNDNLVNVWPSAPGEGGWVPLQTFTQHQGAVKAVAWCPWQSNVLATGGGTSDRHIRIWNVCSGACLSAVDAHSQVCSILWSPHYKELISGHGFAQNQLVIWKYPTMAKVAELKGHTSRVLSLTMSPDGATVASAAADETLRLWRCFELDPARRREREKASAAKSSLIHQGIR
UniProt O60260: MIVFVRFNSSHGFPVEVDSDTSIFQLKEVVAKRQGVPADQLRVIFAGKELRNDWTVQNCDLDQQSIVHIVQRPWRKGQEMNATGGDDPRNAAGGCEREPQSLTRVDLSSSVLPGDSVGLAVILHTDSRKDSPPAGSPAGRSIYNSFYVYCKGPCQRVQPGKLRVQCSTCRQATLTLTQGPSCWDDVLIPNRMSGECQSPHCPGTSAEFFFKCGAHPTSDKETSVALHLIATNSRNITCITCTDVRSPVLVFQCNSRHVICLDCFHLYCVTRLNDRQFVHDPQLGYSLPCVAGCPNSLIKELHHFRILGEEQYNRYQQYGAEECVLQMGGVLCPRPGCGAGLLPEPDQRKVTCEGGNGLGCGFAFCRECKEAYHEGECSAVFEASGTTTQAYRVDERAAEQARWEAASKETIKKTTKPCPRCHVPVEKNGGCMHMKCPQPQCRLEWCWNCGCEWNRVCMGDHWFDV

What was measured:
Cdh1 (human) = Cdh1 (human) (UniProt Q9UM11); test: IP-immunoblot of transfected Parkin domain constructs, mitotic cells (FIG. 10A)
Plk1 (human) = Plk1 (human) (UniProt P53350); test: as above
[1] = target: Purified Cdc20 recombinant protein (UniProt Q12834); test: GST pull-down, GST-Parkin on GSH-Sepharose with purified protein (FIG. 6B)
[2] = target: Purified Cdh1 recombinant protein (UniProt Q9UM11); test: as above

Row | Substance | binding (Cdh1 (human)) | binding (Plk1 (human)) | binding [1] | binding [2]
1 | Parkin RING2 domain alone (from UniProt O60260 415-465) | binds |  |  | 
2 | Parkin C terminal region containing the RING1-IBR domain (from UniProt O60260 238-377) | binds | binds |  | 
3 | GST-Parkin (from UniProt O60260 1-465) (enzyme) |  |  | binds | binds
4 | Parkin C terminal region containing the IBR-RING2 domain (from UniProt O60260 313-465) | binds | binds |  | 
